Laboratory results: paper PMC11379074
No constants are given. Whether binding was seen depends on the method and setting. In cells and extracts the contact can be indirect. Some binding calls cover weakened binding; strength is not graded here. Where a sequence is shown, tags or fusion partners need not be part of it.

Biological target: T1, GST-PDIA5 (human) (UniProt Q14554)
T1 sequence: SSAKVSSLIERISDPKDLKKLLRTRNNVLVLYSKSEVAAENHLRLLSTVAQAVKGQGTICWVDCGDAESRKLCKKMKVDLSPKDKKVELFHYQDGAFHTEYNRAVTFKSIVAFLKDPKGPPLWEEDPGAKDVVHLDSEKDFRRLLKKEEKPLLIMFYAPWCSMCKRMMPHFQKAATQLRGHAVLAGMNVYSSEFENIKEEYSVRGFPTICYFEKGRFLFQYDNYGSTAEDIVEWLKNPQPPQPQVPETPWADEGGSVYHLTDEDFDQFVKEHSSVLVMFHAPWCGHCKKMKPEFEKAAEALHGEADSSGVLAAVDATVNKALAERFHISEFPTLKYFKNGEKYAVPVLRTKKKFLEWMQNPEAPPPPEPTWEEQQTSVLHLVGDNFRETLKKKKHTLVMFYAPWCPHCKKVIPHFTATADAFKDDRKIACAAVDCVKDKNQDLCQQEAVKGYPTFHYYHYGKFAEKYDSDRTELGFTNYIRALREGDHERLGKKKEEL
Experiment: pull-down; GST or GST-PDIA5 from E. coli lysate held on glutathione agarose beads (4°C, 2 h), washed five times; HA-CCAR1 E. coli lysate added for 6 h at 4°C; eluted with glutathione; western blot; only the target purified

binding: binds
B1: HA-CCAR1 (from E. coli) (protein, UniProt Q8IX12 1-1150)
chain: MAQFGGQKNPPWATQFTATAVSQPAALGVQQPSLLGASPTIYTQQTALAAAGLTTQTPANYQLTQTAALQQQAAAAAAALQQQYSQPQQALYSVQQQLQQPQQTLLTQPAVALPTSLSLSTPQPTAQITVSYPTPRSSQQQTQPQKQRVFTGVVTKLHDTFGFVDEDVFFQLSAVKGKTPQVGDRVLVEATYNPNMPFKWNAQRIQTLPNQNQSQTQPLLKTPPAVLQPIAPQTTFGVQTQPQPQSLLQAQISAASITPLLQTQPQPLLQQPQQKAGLLQPPVRIVSQPQPARRLDPPSRFSGRNDRGDQVPNRKDDRSRERERERRRSRERSPQRKRSRERSPRRERERSPRRVRRVVPRYTVQFSKFSLDCPSCDMMELRRRYQNLYIPSDFFDAQFTWVDAFPLSRPFQLGNYCNFYVMHREVESLEKNMAILDPPDADHLYSAKVMLMASPSMEDLYHKSCALAEDPQELRDGFQHPARLVKFLVGMKGKDEAMAIGGHWSPSLDGPDPEKDPSVLIKTAIRCCKALTGIDLSVCTQWYRFAEIRYHRPEETHKGRTVPAHVETVVLFFPDVWHCLPTRSEWETLSRGYKQQLVEKLQGERKEADGEQDEEEKDDGEAKEISTPTHWSKLDPKTMKVNDLRKELESRALSSKGLKSQLIARLTKQLKVEEQKEEQKELEKSEKEEDEDDDRKSEDDKEEEERKRQEEIERQRRERRYILPDEPAIIVHPNWAAKSGKFDCSIMSLSVLLDYRLEDNKEHSFEVSLFAELFNEMLQRDFGVRIYKSLLSLPEKEDKKEKDKKSKKDERKDKKEERDDETDEPKPKRRKSGDDKDKKEDRDERKKEDKRKDDSKDDDETEEDNNQDEYDPMEAEEAEDEEDDRDEEEMTKRDDKRDINRYCKERPSKDKEKEKTQMITINRDLLMAFVYFDQSHCGYLLEKDLEEILYTLGLHLSRAQVKKLLNKVVLRESCFYRKLTDTSKDEENHEESESLQEDMLGNRLLLPTPTVKQESKDVEENVGLIVYNGAMVDVGSLLQKLEKSEKVRAEVEQKLQLLEEKTDEDEKTILNLENSNKSLSGELREVKKDLSQLQENLKISENMNLQFENQMNKTIRNLSTVMDEIHTVLKKDNVKNEDKDQKSKENGASV
